These are yes or no findings as the source states them, for the method shown. In cells and extracts the contact can be indirect. A yes stands for co-enrichment or nearness to the bait. Other partners may have been found.

The values below come from publication PMC9585911.

The target of this assay is Strep-tagged Nsp8 of SARS-CoV-2 (SARS-CoV-2) (UniProt P0DTD1). In words: affinity purification with mass spectrometry.
Take EXOSC1 (from UniProt Q9Y3B2 1-195): the binding entry is reported as “binds”.
The value for EXOSC2 (from UniProt Q13868 1-293) was “binds”.
For EXOSC3 (from UniProt Q9NQT5 1-275) the value was “binds”; for EXOSC5 (from UniProt Q9NQT4 1-235), “binds”; for EXOSC6 (from UniProt Q5RKV6 1-272), “binds”.
For EXOSC7 (from UniProt Q15024 1-291) the value was “binds”; for EXOSC9 (from UniProt Q06265 1-439), “binds”.
